Laboratory results taken from patent US7893197B2, “Relaxin-3 chimeric polypeptides and their preparation and use” (Janssen Pharmaceutica N.V., priority 2005, dated 2011).

Tested on: GPCR135-like binding sites in rat brain
Experiment: Radioligand autoradiography on rat brain sagittal sections
Conditions: 5 pM radioligand; non-specific binding with 100 nM unlabeled relaxin-3

Substance	total versus non-specific binding on rat brain section, in words
[^125I]-R3/I5: radioiodinated R3/I5 chimera used as tracer (RAAPYGVRLCGREFIRAVIFTCGGSRWQDLQTLCCTDGCSMTDLSALC)	the non-specific binding was reduced
[^125I]-relaxin-3: radioiodinated human relaxin-3 used as tracer (RAAPYGVRLCGREFIRAVIFTCGGSRWDVLAGLSSSCCKWGCSKSEISSLC) [reference compound]	no substantial difference between total binding and non-specific binding
